Source: the supplement of paper PMC10849652
The list shows a part of the results.

Amino acid sequences for entries named in this document (tags omitted). A change or cut given only in a name is not applied to a line headed by its entry.
UniProt Q92882: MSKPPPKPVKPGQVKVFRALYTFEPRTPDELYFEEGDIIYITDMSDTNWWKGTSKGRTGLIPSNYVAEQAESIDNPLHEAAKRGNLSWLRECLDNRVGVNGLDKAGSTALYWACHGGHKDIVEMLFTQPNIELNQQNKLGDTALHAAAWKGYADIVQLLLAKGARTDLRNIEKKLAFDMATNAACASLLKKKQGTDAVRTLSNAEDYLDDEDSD
UniProt Q8WV74: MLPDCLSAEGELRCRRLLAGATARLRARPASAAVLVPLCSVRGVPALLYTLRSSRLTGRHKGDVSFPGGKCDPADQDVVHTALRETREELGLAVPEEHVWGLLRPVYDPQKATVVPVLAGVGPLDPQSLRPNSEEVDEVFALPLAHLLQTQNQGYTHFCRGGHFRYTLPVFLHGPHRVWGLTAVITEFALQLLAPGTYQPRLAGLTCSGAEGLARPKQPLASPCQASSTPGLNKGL
UniProt Q9UBD5: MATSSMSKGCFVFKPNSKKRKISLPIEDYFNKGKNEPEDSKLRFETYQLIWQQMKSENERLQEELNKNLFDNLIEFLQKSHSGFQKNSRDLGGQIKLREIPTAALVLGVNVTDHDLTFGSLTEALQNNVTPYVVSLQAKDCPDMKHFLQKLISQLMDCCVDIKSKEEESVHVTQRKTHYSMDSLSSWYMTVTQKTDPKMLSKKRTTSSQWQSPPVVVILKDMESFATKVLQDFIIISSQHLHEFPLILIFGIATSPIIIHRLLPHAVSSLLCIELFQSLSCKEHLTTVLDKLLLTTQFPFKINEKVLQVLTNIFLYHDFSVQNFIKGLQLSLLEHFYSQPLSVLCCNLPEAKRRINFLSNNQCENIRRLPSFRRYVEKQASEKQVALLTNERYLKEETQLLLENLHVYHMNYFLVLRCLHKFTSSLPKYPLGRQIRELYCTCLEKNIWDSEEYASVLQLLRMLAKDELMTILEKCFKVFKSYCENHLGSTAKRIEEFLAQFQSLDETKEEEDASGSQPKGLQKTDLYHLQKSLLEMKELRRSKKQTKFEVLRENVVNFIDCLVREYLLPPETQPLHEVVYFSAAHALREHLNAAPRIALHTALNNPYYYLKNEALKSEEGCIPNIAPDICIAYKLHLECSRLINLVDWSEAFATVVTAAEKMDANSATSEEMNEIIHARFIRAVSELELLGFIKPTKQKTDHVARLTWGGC
UniProt Q8WV22: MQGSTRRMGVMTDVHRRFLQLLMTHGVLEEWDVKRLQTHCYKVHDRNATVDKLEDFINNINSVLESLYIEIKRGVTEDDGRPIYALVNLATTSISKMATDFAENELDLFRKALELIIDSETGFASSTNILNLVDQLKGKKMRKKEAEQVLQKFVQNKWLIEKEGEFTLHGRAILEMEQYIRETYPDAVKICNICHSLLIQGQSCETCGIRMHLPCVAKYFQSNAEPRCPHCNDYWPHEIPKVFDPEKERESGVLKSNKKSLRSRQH
UniProt Q9H6K4: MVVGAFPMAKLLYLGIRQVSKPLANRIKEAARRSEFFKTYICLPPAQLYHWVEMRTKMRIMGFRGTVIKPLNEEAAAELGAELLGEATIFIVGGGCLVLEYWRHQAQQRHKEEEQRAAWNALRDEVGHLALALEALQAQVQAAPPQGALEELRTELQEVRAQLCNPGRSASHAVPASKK
UniProt Q9UQ80: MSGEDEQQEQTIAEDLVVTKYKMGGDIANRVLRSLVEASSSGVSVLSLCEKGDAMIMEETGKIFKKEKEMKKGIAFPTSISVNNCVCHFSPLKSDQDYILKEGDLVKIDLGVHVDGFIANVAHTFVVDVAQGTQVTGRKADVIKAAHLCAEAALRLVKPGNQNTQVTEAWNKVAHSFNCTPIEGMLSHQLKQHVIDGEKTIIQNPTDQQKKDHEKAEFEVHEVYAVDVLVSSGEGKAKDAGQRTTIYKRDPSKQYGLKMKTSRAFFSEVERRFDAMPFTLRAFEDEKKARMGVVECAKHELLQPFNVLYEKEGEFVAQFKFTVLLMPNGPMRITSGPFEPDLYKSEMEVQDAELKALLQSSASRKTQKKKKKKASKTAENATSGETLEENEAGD
UniProt Q92636: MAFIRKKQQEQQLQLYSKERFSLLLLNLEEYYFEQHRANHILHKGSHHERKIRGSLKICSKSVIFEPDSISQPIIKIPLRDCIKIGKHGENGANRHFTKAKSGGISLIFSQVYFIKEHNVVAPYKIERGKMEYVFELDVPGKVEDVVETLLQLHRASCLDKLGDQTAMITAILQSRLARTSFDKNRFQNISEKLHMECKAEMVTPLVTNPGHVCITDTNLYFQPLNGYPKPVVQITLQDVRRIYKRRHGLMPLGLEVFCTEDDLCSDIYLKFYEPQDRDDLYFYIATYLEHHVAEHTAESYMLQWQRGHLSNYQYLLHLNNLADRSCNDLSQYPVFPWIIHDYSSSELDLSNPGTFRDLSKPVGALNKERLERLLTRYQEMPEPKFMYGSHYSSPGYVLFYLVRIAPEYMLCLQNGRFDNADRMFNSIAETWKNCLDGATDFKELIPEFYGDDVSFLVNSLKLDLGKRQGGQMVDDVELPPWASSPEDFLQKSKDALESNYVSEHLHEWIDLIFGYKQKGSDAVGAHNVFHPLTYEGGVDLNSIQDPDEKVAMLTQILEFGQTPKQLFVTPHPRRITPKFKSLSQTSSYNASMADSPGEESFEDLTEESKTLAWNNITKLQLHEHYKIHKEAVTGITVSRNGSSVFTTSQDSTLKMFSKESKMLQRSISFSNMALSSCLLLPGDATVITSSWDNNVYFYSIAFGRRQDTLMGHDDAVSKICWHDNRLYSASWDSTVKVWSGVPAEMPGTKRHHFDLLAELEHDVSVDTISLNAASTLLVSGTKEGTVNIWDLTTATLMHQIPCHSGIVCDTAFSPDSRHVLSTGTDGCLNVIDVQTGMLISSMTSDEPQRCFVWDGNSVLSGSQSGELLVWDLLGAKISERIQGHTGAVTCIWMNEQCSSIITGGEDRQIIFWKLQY
UniProt Q9H4B0: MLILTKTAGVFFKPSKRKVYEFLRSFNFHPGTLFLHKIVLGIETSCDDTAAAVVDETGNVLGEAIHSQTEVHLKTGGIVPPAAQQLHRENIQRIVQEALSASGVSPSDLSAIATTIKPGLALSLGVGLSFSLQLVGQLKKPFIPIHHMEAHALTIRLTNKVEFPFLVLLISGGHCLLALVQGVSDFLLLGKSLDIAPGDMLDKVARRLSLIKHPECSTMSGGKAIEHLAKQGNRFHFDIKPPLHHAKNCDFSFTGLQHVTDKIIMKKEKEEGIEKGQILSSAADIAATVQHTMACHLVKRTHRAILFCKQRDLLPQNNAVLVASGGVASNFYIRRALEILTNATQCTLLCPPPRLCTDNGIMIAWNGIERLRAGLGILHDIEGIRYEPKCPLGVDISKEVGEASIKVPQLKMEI
UniProt Q99571: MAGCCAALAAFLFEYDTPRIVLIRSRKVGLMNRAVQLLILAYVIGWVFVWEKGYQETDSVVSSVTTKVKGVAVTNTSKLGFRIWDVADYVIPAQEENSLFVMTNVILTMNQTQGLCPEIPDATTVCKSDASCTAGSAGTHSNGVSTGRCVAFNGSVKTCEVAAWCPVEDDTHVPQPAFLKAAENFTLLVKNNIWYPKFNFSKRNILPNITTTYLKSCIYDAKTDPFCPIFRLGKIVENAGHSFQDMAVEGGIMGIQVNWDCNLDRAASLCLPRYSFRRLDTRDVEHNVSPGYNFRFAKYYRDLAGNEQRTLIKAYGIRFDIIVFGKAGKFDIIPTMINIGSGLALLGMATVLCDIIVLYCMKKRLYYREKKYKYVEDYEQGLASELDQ
UniProt Q8IVD9: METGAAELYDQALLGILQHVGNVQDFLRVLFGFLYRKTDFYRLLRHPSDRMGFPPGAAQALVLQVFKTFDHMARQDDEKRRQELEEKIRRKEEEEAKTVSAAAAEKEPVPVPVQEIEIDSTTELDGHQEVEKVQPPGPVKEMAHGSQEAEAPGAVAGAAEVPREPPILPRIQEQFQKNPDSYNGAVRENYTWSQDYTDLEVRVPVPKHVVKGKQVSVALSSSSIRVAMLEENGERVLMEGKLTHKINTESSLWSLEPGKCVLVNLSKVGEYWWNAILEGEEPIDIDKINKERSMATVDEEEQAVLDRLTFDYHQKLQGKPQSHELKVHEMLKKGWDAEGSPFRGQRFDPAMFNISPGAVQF
UniProt Q8IVL6: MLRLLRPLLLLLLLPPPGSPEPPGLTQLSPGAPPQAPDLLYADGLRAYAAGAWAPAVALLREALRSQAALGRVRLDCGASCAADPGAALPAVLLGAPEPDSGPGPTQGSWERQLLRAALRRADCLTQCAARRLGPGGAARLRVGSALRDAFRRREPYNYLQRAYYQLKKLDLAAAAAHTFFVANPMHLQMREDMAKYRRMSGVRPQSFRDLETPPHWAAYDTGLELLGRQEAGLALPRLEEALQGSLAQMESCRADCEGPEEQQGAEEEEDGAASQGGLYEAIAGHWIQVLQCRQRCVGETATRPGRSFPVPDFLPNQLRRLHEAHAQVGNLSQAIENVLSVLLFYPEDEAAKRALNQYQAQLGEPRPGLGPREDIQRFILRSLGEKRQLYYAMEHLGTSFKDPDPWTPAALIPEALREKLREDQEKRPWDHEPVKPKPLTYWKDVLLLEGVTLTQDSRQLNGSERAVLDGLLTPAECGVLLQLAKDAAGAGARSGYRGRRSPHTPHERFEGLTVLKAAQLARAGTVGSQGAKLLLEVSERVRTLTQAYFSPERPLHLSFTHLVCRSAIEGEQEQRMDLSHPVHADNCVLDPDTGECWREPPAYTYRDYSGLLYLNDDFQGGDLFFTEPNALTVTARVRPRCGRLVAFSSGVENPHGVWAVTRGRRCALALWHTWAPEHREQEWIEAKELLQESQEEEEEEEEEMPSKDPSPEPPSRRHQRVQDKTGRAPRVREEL
UniProt P22059, whole entry, looked up: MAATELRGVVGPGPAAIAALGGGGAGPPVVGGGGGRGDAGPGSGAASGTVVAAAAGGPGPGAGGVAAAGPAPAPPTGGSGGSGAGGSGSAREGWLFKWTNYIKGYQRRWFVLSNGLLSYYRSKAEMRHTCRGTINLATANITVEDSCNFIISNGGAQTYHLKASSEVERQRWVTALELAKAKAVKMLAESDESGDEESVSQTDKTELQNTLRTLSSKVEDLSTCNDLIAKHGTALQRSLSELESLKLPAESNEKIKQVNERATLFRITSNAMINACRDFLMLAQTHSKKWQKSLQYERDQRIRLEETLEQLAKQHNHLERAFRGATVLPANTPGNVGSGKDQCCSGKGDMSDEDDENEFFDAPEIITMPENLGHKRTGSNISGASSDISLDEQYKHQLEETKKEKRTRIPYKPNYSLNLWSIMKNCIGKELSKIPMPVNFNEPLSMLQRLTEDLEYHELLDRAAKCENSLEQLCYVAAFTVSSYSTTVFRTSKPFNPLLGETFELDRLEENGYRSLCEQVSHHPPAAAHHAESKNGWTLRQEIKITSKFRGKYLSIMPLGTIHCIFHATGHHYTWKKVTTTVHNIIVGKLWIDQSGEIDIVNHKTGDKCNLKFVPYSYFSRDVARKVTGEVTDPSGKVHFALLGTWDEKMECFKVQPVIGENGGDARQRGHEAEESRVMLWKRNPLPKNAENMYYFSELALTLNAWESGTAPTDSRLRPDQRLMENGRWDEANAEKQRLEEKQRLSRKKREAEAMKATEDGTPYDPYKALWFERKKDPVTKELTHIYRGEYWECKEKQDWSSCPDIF
UniProt Q01968: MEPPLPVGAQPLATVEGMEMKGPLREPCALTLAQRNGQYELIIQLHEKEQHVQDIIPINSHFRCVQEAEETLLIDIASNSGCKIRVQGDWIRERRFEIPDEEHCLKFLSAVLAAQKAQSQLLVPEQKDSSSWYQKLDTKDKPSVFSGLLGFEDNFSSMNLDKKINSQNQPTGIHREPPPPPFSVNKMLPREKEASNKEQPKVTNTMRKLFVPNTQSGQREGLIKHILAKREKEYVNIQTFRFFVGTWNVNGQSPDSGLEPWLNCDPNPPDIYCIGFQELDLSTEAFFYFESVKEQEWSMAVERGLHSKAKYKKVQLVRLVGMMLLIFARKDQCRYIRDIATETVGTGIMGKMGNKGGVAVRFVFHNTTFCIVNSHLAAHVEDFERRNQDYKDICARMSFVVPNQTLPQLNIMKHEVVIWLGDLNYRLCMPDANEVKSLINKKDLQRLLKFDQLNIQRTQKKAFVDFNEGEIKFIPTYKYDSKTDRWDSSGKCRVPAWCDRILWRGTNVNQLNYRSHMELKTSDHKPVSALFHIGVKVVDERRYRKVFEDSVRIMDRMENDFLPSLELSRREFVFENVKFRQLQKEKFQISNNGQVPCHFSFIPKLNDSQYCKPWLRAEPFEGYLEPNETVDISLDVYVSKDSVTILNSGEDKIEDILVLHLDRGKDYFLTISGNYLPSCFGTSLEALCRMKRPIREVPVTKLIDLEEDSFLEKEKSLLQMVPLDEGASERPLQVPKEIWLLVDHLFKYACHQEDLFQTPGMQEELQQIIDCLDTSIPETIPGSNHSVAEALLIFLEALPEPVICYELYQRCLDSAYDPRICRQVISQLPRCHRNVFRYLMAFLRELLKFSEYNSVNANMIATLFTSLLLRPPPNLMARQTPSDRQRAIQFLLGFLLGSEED

Assays:
Assay in all cases: log2 fold change, soluble protein after heating vs DMSO (PISA); higher = thermal stabilisation; K562 cells, 10 uM, 30 min; active = over 0.2 and 3.5 SD of the protein, either way, in both replicates (recomputed)
[1] = compound: C1=CC=C(C=C1)[C@H](COC2=CC3=C(C=C2)NC(=O)N3)NC(=O)C4=CC=CN(C4=O)CC5=CC(=C(C=C5)F)F
How it was run: (§1)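 Aliquots of K562 cells (2×10^6 cells/mL) treated with 10 μM compound for 30 min were heated for 3 min over 48°C-58°C. After pooling and extraction in PBS with 0.5% NP-40 at 4°C, soluble protein from a 21,000xg, 90 min spin was quantified by TMTpro 16plex LC-MS/MS with channel sums equalised. Thermal stability is expressed against control samples, from duplicates, as a log2 fold change.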

[2] = compound: CC1=C(SC2=C1C(=N[C@H](C3=NN=C(N32)C)CC(=O)N)C4=CC=C(C=C4)Cl)C
How it was run: as §1

[3] = compound: CC1=C2C(=CC=C1)N=C(N(C2=O)C3=CC=CC=C3C)CN4C=NC5=C(N=CN=C54)N
How it was run: as §1

[4] = compound: Cc1sc2c(c1C)C(c1ccc(Cl)cc1)=N[C@@H](CC(=O)OC(C)(C)C)c1nnc(C)n1-2
How it was run: as §1

[5] = compound: c1ccc([C@@H]2C[C@H]2NC2CCNCC2)cc1
How it was run: as §1

Measured: log2 fold change

OSTF1 (UniProt Q92882)
inactive: [1] -0.03 | [2] 0.058 | [3] 0.056 | [4] -0.09 | [5] -0.018

NUDT8 (UniProt Q8WV74)
inactive: [1] -0.022 | [2] 0.125 | [3] 0.153 | [4] 0.123 | [5] -0.045

ORC3 isoform 2 (UniProt Q9UBD5)
inactive: [1] -0.098 | [2] 0.032 | [3] 0.107 | [4] 0.013 | [5] -0.079

NUDT22 (UniProt Q9BRQ3)
inactive: [1] -0.093 | [3] 0.217

NSMCE1 (UniProt Q8WV22)
inactive: [2] -0.051 | [3] -0.117 | [4] 0.062 | [5] 0.085

OPA3 isoform 2 (UniProt Q9H6K4)
inactive: [2] 0.011 | [3] 0.125 | [5] -0.035

Two neighbouring entries out of the list so far, quoted:
NUDT22 (UniProt Q9BRQ3)
inactive: [1] -0.093 | [3] 0.217

NSMCE1 (UniProt Q8WV22)
inactive: [2] -0.051 | [3] -0.117 | [4] 0.062 | [5] 0.085

The list continues:

PA2G4 (UniProt Q9UQ80)
inactive: [1] -0.049 | [2] 0.006 | [3] 0.013 | [4] 0.019 | [5] -0.076

NSMAF (UniProt Q92636)
inactive: [1] 0.002 | [2] 0.109 | [3] 0.104 | [4] 0.117 | [5] 0.027

OSGEPL1 (UniProt Q9H4B0)
inactive: [2] 0.13 | [3] 0.128 | [5] -0.054

P4HA1 (UniProt P13674)
inactive: [1] 0.037 | [2] -0.093 | [3] -0.037 | [4] -0.018 | [5] 0.019

NT5DC3 (UniProt Q86UY8)
inactive: [1] -0.011 | [2] 0.042 | [3] 0.055 | [4] 0.019 | [5] 0.018

P2RX4 isoform 2 (UniProt Q99571)
inactive: [1] 0.106 | [2] 0.072 | [3] -0.013 | [4] -0.079 | [5] -0.049

NUDCD3 (UniProt Q8IVD9)
inactive: [1] -0.037 | [2] 0.033 | [3] 0.083 | [4] -0.018 | [5] -0.019

NXF1 (UniProt Q9UBU9)
inactive: [4] 0.165

P3H1 (UniProt Q32P28)
inactive: [1] 0.065 | [2] -0.017 | [3] 0.028 | [4] -0.019 | [5] -0.031

OGA (UniProt O60502)
inactive: [1] -0.032 | [2] 0.019 | [3] 0.047 | [4] -0.034 | [5] -0.065

P3H3 (UniProt Q8IVL6)
inactive: [4] 0.03

OCIAD1 (UniProt D6RDK6)
inactive: [1] -0.177 | [2] 0.01 | [3] 0.045 | [4] 0.087 | [5] 0.055

OSBP (UniProt P22059)
inactive: [1] 0.015 | [2] 0.084 | [3] 0.076 | [4] -0.002 | [5] 0.031

OSBPL3 (UniProt Q9H4L5)
inactive: [2] -0.077 | [3] -0.035 | [4] 0.292 | [5] 0.14

NUFIP2 (UniProt Q7Z417)
inactive: [1] 0.032 | [2] -0.17 | [3] -0.119 | [4] 0.126 | [5] 0.103

NUMBL (UniProt Q9Y6R0)
inactive: [1] -0.058 | [2] -0.084 | [3] 0.009 | [5] -0.009

ORMDL1 (UniProt Q9P0S3)
inactive: [4] 0.002

OCRL (UniProt Q01968)
inactive: [1] -0.123 | [2] 0.058 | [3] 0.025 | [4] 0.003 | [5] 0.003

OBSCN (UniProt A6NGQ3)
inactive: [1] -0.27 | [2] -0.131 | [4] -0.115 | [5] 0.164
